From patent publication US20080214504A1, “Vitamin B6 Related Compounds and Methods for Recovery From Trauma” (MEDICURE INTERNATIONAL INC., priority 2004, published 2008)

Test system: patients scheduled for elective percutaneous coronary intervention (PCI) with high-risk features for periprocedural myocardial infarction
Test: Randomized placebo-controlled study of P5P in patients undergoing elective PCI: recovery, length of hospitalization, time to discharge
Assay type: in vivo, human
Excerpt: Selection of Study Population—The patients selected for this trial were patients scheduled for elective percutaneous coronary intervention (PCI) with high-risk features for periprocedural myocardial infarction, and who satisfied specific inclusion criteria as described in the next section. Patients to be included in this study were of either sex, >18 years of age and admitted to hospital for elective, single-vessel, non-urgent PCI. Patients must have presented with at least one of the following high-risk clinical criteria: • ACS with last chest pain episode (or ischemic equivalent) within 48 hours, • recent myocardial infarction (≦7 days) with return of cardiac markers, (CK, CK-MB, and troponin) to below upper normal limits, • angiographic evidence of reduced epicardial flow (TIMI<3), • angiographic evidence of thrombus, • left ventricular ejection fraction≦30%, or • saphenous vein graft lesion. […]
Treatments Administered—Following baseline laboratory assessments, patients were randomized to placebo or P5P (a vitamin B6 related compound), administered as a 10 mg/kg oral dose, at least (4) hours prior to PCI, followed by 10 mg/kg orally divided in two daily doses for fourteen (14) days. […] The date, time and dosing of the first and last study drug dosing was recorded in the CRF. […]

In the case of `Cc1ncc(COP(=O)(O)O)c(C=O)c1O` [P5P, pyridoxal-5′-phosphate], the “Treated more quickly than placebo (fold)” value (9.4 hours versus 31 hours for placebo) was 3 times and the “Time in which patients were treated” value (patients randomized to P5P, placebo 31 hours) was 9.4 h.
